Consider three substances from article PMC12297659, “In situ structure of the mouse sperm central apparatus reveals mechanistic insights into asthenozoospermia” (Cell Research, 2025).

These are yes or no findings as the source states them, for the method shown. Binding can be weak; no strength is given.

Test in all cases: cryo-EM structure; in situ cryo-electron tomography with subtomogram averaging of about 200 nm cryo-FIB lamellae of wild-type mouse sperm; local maps of 5.5 Å to 18 Å; AlphaFold2 models fitted into the density
In experiment [1] the target is T1, ANKMY1 (mouse (endogenous in sperm)) (UniProt Q8C0W1).
T1 sequence: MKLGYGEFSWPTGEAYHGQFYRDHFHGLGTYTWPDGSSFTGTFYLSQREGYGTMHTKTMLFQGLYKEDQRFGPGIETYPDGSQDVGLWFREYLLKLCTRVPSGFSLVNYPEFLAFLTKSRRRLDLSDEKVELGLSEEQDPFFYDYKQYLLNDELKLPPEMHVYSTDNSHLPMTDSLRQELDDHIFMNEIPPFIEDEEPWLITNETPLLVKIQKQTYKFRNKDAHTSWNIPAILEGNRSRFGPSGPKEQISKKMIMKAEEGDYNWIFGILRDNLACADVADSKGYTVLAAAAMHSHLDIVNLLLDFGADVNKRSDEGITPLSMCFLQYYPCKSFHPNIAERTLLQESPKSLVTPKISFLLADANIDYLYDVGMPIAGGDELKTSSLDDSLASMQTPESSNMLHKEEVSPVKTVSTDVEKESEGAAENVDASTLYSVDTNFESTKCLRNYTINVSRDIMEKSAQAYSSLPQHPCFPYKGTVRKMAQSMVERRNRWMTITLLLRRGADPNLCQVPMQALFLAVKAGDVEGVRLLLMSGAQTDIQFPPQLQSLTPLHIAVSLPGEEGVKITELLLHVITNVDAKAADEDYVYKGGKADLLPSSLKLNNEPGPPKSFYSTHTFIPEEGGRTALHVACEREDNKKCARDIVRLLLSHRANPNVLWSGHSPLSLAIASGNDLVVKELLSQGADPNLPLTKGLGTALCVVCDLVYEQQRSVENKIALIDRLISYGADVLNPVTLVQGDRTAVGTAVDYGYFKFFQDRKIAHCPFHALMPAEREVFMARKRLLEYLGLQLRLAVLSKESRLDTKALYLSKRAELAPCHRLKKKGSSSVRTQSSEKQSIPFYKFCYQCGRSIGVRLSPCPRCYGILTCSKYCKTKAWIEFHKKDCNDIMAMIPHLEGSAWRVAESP

The target in experiment [2] is T2, LRRC43 (mouse (endogenous in sperm)) (UniProt Q3V0L5).
T2 sequence: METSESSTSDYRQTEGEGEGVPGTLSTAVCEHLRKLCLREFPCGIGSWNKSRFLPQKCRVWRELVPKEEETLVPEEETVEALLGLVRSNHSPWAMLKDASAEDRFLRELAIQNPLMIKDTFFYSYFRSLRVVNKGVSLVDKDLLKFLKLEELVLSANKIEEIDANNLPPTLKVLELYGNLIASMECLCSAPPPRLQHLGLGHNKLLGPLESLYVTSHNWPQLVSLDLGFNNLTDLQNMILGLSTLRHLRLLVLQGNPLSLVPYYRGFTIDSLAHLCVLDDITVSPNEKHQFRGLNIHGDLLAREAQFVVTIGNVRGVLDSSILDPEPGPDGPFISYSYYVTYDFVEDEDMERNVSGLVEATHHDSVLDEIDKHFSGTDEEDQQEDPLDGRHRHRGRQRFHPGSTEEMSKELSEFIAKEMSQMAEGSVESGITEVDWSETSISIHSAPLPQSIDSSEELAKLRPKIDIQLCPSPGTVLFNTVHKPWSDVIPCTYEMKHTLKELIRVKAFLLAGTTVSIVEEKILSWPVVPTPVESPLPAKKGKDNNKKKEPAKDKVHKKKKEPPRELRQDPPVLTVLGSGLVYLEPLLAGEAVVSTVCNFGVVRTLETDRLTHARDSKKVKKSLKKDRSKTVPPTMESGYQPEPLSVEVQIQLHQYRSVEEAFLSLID

The target of experiment [3] is T3, SPAG6 (mouse (endogenous in sperm)) (UniProt Q9JLI7).
T3 sequence: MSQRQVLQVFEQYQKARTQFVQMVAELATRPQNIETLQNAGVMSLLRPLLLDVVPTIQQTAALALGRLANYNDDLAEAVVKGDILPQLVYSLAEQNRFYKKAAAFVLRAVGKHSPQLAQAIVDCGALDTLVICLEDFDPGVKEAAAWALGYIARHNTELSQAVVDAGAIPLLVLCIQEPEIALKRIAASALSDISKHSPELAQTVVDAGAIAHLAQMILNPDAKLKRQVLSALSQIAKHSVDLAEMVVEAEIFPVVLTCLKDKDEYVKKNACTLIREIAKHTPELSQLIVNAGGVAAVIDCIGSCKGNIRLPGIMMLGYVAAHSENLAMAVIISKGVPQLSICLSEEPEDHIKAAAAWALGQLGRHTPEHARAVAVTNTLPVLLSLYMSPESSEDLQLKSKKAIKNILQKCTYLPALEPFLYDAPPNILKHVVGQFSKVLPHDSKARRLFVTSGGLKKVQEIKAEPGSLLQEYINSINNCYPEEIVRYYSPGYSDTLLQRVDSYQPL

Regarding CCDC180 (mouse (endogenous in sperm)), the binding result in experiment [1] is on record as “binds”. Regarding CFAP46 (mouse (endogenous in sperm)), the binding entry in experiment [2] and in experiment [3] was “binds” in each case.

As for DLEC1 (mouse (endogenous in sperm)), the binding result in experiment [3] is recorded as “binds”.
